These results are taken from doi:10.1101/032581.

By UniProt entry, the sequences of proteins in these tests, tags left out.
UniProt P40562: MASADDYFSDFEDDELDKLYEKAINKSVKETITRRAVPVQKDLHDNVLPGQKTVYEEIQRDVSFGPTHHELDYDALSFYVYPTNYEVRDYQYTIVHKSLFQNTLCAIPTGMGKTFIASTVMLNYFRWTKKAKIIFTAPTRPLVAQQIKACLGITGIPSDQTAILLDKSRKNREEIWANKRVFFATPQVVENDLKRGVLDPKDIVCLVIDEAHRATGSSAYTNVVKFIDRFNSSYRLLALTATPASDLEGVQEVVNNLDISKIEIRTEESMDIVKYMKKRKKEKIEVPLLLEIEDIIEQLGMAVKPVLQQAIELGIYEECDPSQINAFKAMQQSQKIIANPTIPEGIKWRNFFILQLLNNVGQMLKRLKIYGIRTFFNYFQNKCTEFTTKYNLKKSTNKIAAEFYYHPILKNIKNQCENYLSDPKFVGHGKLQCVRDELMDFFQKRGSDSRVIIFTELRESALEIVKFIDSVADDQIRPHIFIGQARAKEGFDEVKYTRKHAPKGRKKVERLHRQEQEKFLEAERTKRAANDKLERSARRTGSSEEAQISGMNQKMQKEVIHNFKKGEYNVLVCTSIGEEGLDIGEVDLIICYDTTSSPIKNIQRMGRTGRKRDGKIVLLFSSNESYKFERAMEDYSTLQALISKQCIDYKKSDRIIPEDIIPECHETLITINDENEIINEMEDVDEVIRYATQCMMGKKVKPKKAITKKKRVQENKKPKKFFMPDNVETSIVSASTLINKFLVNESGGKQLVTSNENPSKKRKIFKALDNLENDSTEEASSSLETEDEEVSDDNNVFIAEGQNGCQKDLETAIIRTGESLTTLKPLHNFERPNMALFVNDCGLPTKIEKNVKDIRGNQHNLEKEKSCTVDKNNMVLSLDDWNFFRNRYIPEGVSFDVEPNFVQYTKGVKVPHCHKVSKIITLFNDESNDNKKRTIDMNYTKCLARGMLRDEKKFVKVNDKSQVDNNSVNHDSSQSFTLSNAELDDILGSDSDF

Results are given in words; binding and its absence hold for the method and conditions named. Binding seen in cells or lysates may run through a third protein. Some results given as binding are weak or reduced against the parent protein; the word gives no strength. Sequences can lack the tags named with a protein.

Assay [1] deals with T1, Mte1-10flag (S. cerevisiae (budding yeast)) (UniProt P53227).
T1 sequence: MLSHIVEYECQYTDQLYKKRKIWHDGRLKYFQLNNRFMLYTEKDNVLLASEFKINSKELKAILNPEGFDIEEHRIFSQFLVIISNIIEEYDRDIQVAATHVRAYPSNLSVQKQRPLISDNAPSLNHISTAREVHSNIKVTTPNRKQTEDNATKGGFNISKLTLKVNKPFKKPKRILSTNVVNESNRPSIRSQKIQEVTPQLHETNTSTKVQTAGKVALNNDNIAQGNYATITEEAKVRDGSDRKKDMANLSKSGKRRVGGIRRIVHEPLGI
Nature of the assay: co-IP.

For assay [2], the target named is Mph1-3HA (S. cerevisiae (budding yeast)) (UniProt P40562). Description: co-IP.

In the case of Mph1-3HA (from UniProt P40562 1-993), in assay [1], the binding entry is given as “binds”.

B1: Mte1-10flag (protein, UniProt P53227 1-271)
chain: T1 sequence
In the case of B1, the binding result in assay [2] is “binds”.
